Where “and” joins values, the source holds several entries; their conditions need not be identical. Equal values may be shown once. About 6,100 (1.1%) of roughly 580,000 compounds were called active. Inconclusive means that the source gave no clear call. Such entries were picked first, then a sample of the others. Calls follow the shape of the dose curve; as a rule, active = well fitted inhibition curve with a large enough effect; inconclusive = small, poorly fitted or top-dose-only effect, or another doubt; inactive = no such curve, though single readings can be large or run the other way. Potencies beside an inconclusive call are fits to weak or partial responses and may not hold up.
Molecular target: Polyunsaturated fatty acid lipoxygenase ALOX12 (Homo sapiens) (UniProt P18054)
Test: Primary qHTS assay for inhibitors of human arachidonate 12S-lipoxygenase (ALOX12): Round 2
Conditions: purified 12hLO, xylenol orange hydroperoxide absorbance; series mostly up to 108 µM
Method in brief: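 Purified human 12hLO (150 nM final) in 25 mM Hepes, 0.01% Triton X-100, pH 7.0 was preincubated 15 min at room temperature with compound. Then 40 uM arachidonic acid was added, 30 min. Hydroperoxide was read by Fe-XO absorbance ratio 573/405 nm.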
Potency is read from the fitted curve at half-maximal effect.

Sequences of proteins named here, by UniProt entry; tags and fusion partners are left off. A change or cut given only in a name is not applied to a line headed by its entry.
UniProt P18054: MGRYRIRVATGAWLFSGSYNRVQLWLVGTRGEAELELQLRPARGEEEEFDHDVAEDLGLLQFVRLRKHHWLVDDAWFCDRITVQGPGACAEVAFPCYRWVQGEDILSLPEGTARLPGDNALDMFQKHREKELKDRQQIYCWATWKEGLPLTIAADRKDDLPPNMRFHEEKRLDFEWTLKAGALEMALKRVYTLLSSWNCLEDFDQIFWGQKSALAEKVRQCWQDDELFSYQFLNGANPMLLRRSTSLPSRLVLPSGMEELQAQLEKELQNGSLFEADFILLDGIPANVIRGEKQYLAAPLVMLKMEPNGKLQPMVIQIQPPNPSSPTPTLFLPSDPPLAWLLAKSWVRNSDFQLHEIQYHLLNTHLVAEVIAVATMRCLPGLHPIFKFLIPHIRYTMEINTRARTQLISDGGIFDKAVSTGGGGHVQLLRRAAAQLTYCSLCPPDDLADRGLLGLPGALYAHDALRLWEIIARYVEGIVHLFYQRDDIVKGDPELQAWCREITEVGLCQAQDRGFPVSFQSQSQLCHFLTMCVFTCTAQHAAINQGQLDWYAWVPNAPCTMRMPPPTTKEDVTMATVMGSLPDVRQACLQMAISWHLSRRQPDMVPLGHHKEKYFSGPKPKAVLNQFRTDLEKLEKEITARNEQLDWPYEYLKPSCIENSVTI

Q: Which Potency does the source give for COc1cc(/C=C/c2ccc3c(Br)cc(Br)c(O)c3n2)ccc1O here?
A: inactive

Q: How did the Potency turn out when S=C(Nc1ccc(Cl)cc1Cl)NC1CC1 was run?
A: inconclusive: 56.2 µM [inhibitor, partial curve, poor fit]

Q: COc1ccc(OC)c(CN2C(=O)CCCCC2(C)c2nnnn2C2CCCC2)c1 (centres undefined) was tested. Which Potency did it give?
A: inactive

Q: Which Potency does the source give for CCC(C)C(=O)N1CCc2cc(-c3csc(N)n3)ccc21 (centres undefined) here?
A: inconclusive: 1 µM [inhibitor, full curve, poor fit]

Q: With Cc1ccc(/C=C2\SC(=S)N(CCCC(=O)NC3CCCC3)C2=O)cc1 as the compound, how does the Potency read?
A: inactive

Q: CCCC(C)N(C)CC(=O)NC(=O)NCCc1cccs1 (centres undefined) was tested. Which Potency did it give?
A: inconclusive: 79.4 µM [inhibitor, single point]

Q: How did the Potency turn out when Cn1c(N2CCN(c3ccccn3)CC2)nc2c1c(=O)n(Cc1ccc(Cl)cc1)c(=O)n2C was run?
A: inactive

Q: How did the Potency turn out when COc1ccc(OC)c(NC(=O)c2c(NCc3sccc3C)sc3c2CCCCC3)c1 was run?
A: inconclusive: 141 µM [inhibitor, single point]

Q: Which Potency does the source give for CC(=O)Nc1ccc(CN2CC3CCC(C2)N3c2ccc(C(F)(F)F)cc2)cc1 here?
A: inactive

Q: How did the Potency turn out when COc1ccc2c(c1)-c1nc(NC(=O)c3ccc(OC)c(Br)c3)sc1CC2 was run?
A: inconclusive: 56.2 µM [inhibitor, partial curve, poor fit]

Q: For CN1N=C2c3ccccc3CCCC2C1c1ccc(F)cc1 (centres undefined), which Potency is on record?
A: active: 39.8 µM

Q: CC(C)c1nc2sc3c(=S)nc[nH]c3c2c2c1CCC2 was tested. Which Potency did it give?
A: inconclusive: 89.1 µM [inhibitor, partial curve, poor fit]

Q: With CCN=C1NN=C(c2cc(C)n(Cc3ccco3)c2C)CS1 as the compound, how does the Potency read?
A: inconclusive: 44.7 µM [inhibitor, single point]

Q: With CCn1nc(C(=O)Nc2cccc(C)n2)c2ccccc2c1=O as the compound, how does the Potency read?
A: inactive

Q: How did the Potency turn out when Cc1ccc2oc(C(=O)O)c(C)c2c1 was run?
A: inconclusive: 39.8 µM [inhibitor, single point]

Q: Cc1ccc(-c2cc(Cc3cccs3)c(=O)[nH]n2)cc1 was tested. Which Potency did it give?
A: inconclusive: 112 µM [inhibitor, single point]

Q: With COc1ccc(/C=N/Nc2nc(-c3ccc(C)cc3)c(NC(C)=O)s2)cc1 as the compound, how does the Potency read?
A: inconclusive: 50.1 µM [inhibitor, single point]

Q: Which Potency does the source give for Cn1c(=O)[nH]c(=O)c2c1nc(Nc1cccc(Cl)c1Cl)n2CC(=O)O here?
A: inactive

Q: O=C(CN1CCN(Cc2ccccc2)CC1)N1CCCc2ccccc21 was tested. Which Potency did it give?
A: inconclusive: 112 µM [inhibitor, single point]

Q: CCCCCn1nc(C(=O)OCCOc2ccccc2F)c2ccccc2c1=O was tested. Which Potency did it give?
A: inconclusive: 44.7 µM [inhibitor, partial curve, poor fit]

Q: How did the Potency turn out when CCOC(=O)CCNC(=O)N1c2ccccc2CC1c1nc(C2CC2)no1 (centres undefined) was run?
A: inactive

Q: O=C(O)c1cc2ccccc2o1 was tested. Which Potency did it give?
A: inconclusive: 14.1 µM [inhibitor, full curve]

Q: How did the Potency turn out when CCNC(=S)Nc1ccc(OCc2nc3ccccc3s2)cc1 was run?
A: active: 44.7 µM

Q: For CCCCCCN1C[C@@H](O)[C@H](n2cc(-c3ccc(F)cc3)nn2)C[C@@H]1c1ccc(C)cc1, which Potency is on record?
A: inconclusive: 70.8 µM [inhibitor, partial curve, poor fit]

Q: With Oc1ccc(Br)cc1/C=N/n1c(-c2ccccc2)n[nH]c1=S as the compound, how does the Potency read?
A: inconclusive: 39.8 µM [inhibitor, partial curve, poor fit]

Q: Which Potency does the source give for Cc1nc(-c2c3n(c(=O)n(Cc4ccc(C#N)cc4)c2=O)CCCCC3)no1 here?
A: inconclusive: 44.7 µM [inhibitor, partial curve]

Q: For CS(=O)(=O)c1ccc(-c2sc3ccccc3c2C(=O)N2CCN(c3ccc(F)cc3)CC2)cc1, which Potency is on record?
A: inconclusive: 44.7 µM [inhibitor, partial curve, poor fit]

Q: CCOCCCNC(=O)c1ccc(C)c(C)c1 was tested. Which Potency did it give?
A: inactive

Q: For Cc1ccccc1-c1nc(C#N)c(NCCN(C)C)o1, which Potency is on record?
A: inconclusive: 10 µM [inhibitor, full curve]

Q: With O=C(O)c1ccc(NC(=S)NC(=O)c2ccc3ccccc3c2)cc1 as the compound, how does the Potency read?
A: inconclusive: 3.98 µM [inhibitor, full curve, poor fit]

Q: Which Potency does the source give for O=C(c1ccccc1F)N1CCC2(CC1)NCCc1c2[nH]c2ccccc12 here?
A: inactive

Q: With CCc1ccc(NC(=O)N2CCN(Cc3ccc(Cl)s3)CC2)cc1 as the compound, how does the Potency read?
A: inconclusive: 158 µM [inhibitor, single point]

Q: COc1c(N)c2ccccc2[nH]c1=O was tested. Which Potency did it give?
A: inactive

Q: Cc1ccccc1C(=O)N1CC2(Cc3ccccc3N([S+](C)(=O)[O-])C2)C1 was tested. Which Potency did it give?
A: active: 44.7 µM

Q: Cc1cccc(-c2cc(C(=O)N3CCN(c4ncccn4)CC3)c3ccccc3n2)c1 was tested. Which Potency did it give?
A: inconclusive: 31.6 µM [inhibitor, single point]

Q: CCOc1ccc(C(C(=O)Nc2ccc(F)cc2)N(C(=O)Cn2nnc3ccccc32)C2CC2)cc1 (centres undefined) was tested. Which Potency did it give?
A: inconclusive: 2 µM [inhibitor, full curve, poor fit]

Q: With CCN(CC)C(=O)CC(c1ccc(F)cc1)c1ccco1 (centres undefined) as the compound, how does the Potency read?
A: inconclusive: 35.5 µM [inhibitor, single point]

Q: How did the Potency turn out when CN1CCN(CCCNC(=O)c2cc3c(=O)n(C)c4ccccc4c3s2)CC1 was run?
A: inactive

Q: How did the Potency turn out when Cc1ccc(CC2(C)C(=O)Nc3c(Cl)ccc(Cl)c32)cc1 (centres undefined) was run?
A: inconclusive: 100 µM [inhibitor, single point]

Q: How did the Potency turn out when COc1ccc(CCCC(=O)NC2CCCCC2)cc1 was run?
A: inconclusive: 6.31 µM [inhibitor, full curve, poor fit]

Q: How did the Potency turn out when C=CCOC(=O)C(=O)/C=C/c1ccc2c(c1)Cc1ccccc1-2 was run?
A: active: 14.1 µM

Q: Which Potency does the source give for O=S(=O)(NCc1ccc(F)cc1)c1ccc(Br)cc1Br here?
A: inconclusive: 50.1 µM [inhibitor, partial curve, poor fit]

Q: Cc1nn(-c2ccccc2)c(Oc2ccc(F)cc2F)c1CCC(=O)NC(C)C was tested. Which Potency did it give?
A: inconclusive: 20 µM [inhibitor, full curve, poor fit]

Q: How did the Potency turn out when CCOC(=O)c1ccc(N2C(=O)c3n[nH]c(-c4ccco4)c3C2c2ccc(OCC)cc2)cc1 (centres undefined) was run?
A: inconclusive: 100 µM [inhibitor, partial curve, poor fit] and inconclusive: 112 µM [inhibitor, single point]

From PubChem BioAssay AID1671190 (National Center for Advancing Translational Sciences (NCATS), 2021)
